Experimental data as given in PubChem BioAssay AID493014 (National Center for Advancing Translational Sciences (NCATS), 2011).
Some of the results follow. Shown are side measurements of this screen, not its main read-out; they come without a call. Most of these compounds were active or inconclusive in the main read-out, so they are no random draw. Potencies come from curve fits of mixed quality, noted in brackets.

Assay: qHTS Assay to Find Inhibitors of Chronic Active B-Cell Receptor Signaling
Details: ABC-DLBCL IkBa-CBG/CBR reporter, luminescence ratio (green luciferase fused to IkBa over red control in TMD8 lymphoma cells), 4 h
In short: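 TMD8 ABC-DLBCL cells carrying doxycycline-inducible green luciferase fused to IkappaBalpha plus unfused red luciferase were exposed to compounds (up to 46 uM) for 4 hrs at 37C. Activity came from the overlap-corrected green/red luminescence ratio.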

[1] = measured here: CBR red luminescence, cell number
[2] = measured here: IkBa-CBG green luminescence

SMILES | AC50 [1] | AC50 [2]
CCOC(=O)N1CCN(S(=O)(=O)CCNC(=O)c2ccccc2)CC1 | 1.03 µM [rising, partial curve, poor fit] | –
COc1ccccc1CNC(=O)CSc1nc(N)c(C#N)c(-c2cccs2)c1C#N | 1.78 µM [falling, partial curve] | –
Cc1cc(/C(N)=N/OC(=O)c2ccc(Cl)cc2)no1 | 0.501 µM [rising, full curve, poor fit] | –
COc1ccc(OC)c(Nc2nc(NCCO)c3ccccc3n2)c1 | 17.8 µM [falling, single point] | –
Cc1ccc(S(=O)(=O)NCCCNc2ccc([N+](=O)[O-])cc2)cc1 | 35.5 µM [falling, single point] | –
CSc1ccc(S(=O)(=O)NCc2ccc(Cl)cc2Cl)cc1 | 29.1 µM [rising, single point] | –
O=C(NCCc1ccc(F)cc1)c1ccc([N+](=O)[O-])cc1 | 7.08 µM [rising, partial curve, poor fit] | –
CCCC1(CCC)NC(=O)N(CC(=O)c2cc(C)n(-c3ccc4c(c3)OCO4)c2C)C1=O | 1.64 µM [falling, partial curve, poor fit] | –
Cc1ccc(NC(=O)c2cc(NC(=O)c3ccco3)ccc2N2CCOCC2)cc1Cl | 0.231 µM [falling, full curve, poor fit] | –
NS(=O)(=O)c1c(Sc2ccccc2C(=O)O)ccc2ccccc12 | 11.2 µM [falling, single point] | 0.282 µM [rising, full curve]
CC(=O)c1cccc(NC(=O)N2CCCC2C(=O)Nc2ccc3c(c2)OCO3)c1 (stereo not drawn) | 22.4 µM [rising, single point] | –
CCCNC(=O)c1ccccc1NC(=O)CN(c1ccccc1)S(=O)(=O)N(C)C | 11.2 µM [falling, partial curve] | –
Cc1ccc(/C=C/C(=O)NC2CCCCCCC2)o1 | 29.1 µM [falling, single point] | –
COCCCNS(=O)(=O)c1cccc(S(=O)(=O)c2cccc(S(=O)(=O)NCCCOC)c2)c1 | 11.2 µM [falling, single point] | –
COc1ccc2oc(=O)c(C(=O)N3CCCC3)cc2c1 | 4.47 µM [rising, full curve, poor fit] | –
Cc1ccc(C(=O)NCc2ccco2)cc1 | 28.2 µM [falling, single point] | –
Oc1ccccc1-c1nc2c3ccccc3c3ccccc3c2[nH]1 | 12.6 µM [falling, partial curve, poor fit] | –
COc1cc(CN2CCC(CO)(Cc3cccc(C(F)(F)F)c3)CC2)ccc1F | 15.8 µM [falling, partial curve, poor fit] | –
CCc1c(C)nc(Nc2nc(C)c3cc(OC)ccc3n2)[nH]c1=O | 15.8 µM [falling, single point] | –
O=C(COc1ccc2ccc(=O)oc2c1)OCc1ccccc1 | 11.2 µM [rising, partial curve] | –
C=CCSC1=NC(=O)/C(=C/c2cccs2)S1 | 1.46 µM [falling, full curve, poor fit] | –
Cc1ccc(C)c(N(CC(=O)Nc2ccccc2C(=O)NCc2ccco2)S(=O)(=O)c2ccccc2)c1 | 0.517 µM [falling, full curve, poor fit] | –

Entries of single compounds, looked up by structure. Values in the order: AC50 [1] | AC50 [2]
CC(=O)c1cccc(NC(=O)N2CCCC2C(=O)Nc2ccc3c(c2)OCO3)c1 (stereo not drawn) is listed with 22.4 µM [rising, single point] | –
Cc1ccc(S(=O)(=O)NCCCNc2ccc([N+](=O)[O-])cc2)cc1 is listed with 35.5 µM [falling, single point] | –
O=C(NCCc1ccc(F)cc1)c1ccc([N+](=O)[O-])cc1 is listed with 7.08 µM [rising, partial curve, poor fit] | –
Cc1ccc(C)c(N(CC(=O)Nc2ccccc2C(=O)NCc2ccco2)S(=O)(=O)c2ccccc2)c1 is listed with 0.517 µM [falling, full curve, poor fit] | –

Further structures:

SMILES | AC50 [1] | AC50 [2]
COc1cccc(NC(=O)CN(c2ccccc2OC)S(=O)(=O)c2cccs2)c1 | 5.17 µM [falling, partial curve] | –
COc1ccc(-c2nnc(Nc3nc4c(OC)cccc4s3)o2)c(OC)c1 | 9.2 µM [falling, partial curve] | –
Cc1cccc2cc(COC(=O)C(C)C)c(=O)[nH]c12 | 7.08 µM [rising, partial curve, poor fit] | –
COc1ccc(NC(=O)N/C=C/c2ccco2)cc1 | 14.1 µM [falling, partial curve, poor fit] | –
O=C1C(=O)N(Cc2cccc([N+](=O)[O-])c2)c2ccccc21 | 1.03 µM [rising, full curve, poor fit] | 23.1 µM [falling, single point]
Cc1ccc(NC(=O)CN(C)C(=O)c2ccc(Cl)c([N+](=O)[O-])c2)cc1 | – | 20.6 µM [rising, partial curve, poor fit]
COc1ccc(C(=O)c2ccc(OC)c(OC)c2)cc1 | 3.26 µM [rising, partial curve, poor fit] | –
CCN(C(=O)c1cc2c(s1)-c1ccccc1OC2)c1cc(OC)ccc1OC | 35.5 µM [falling, single point] | –
O=C(NCc1ccc(Cl)cc1)C(=O)NCC1CCCN1S(=O)(=O)c1cccs1 (stereo not drawn) | 29.1 µM [rising, single point] | –
CN(C(=O)COC(=O)c1ccc([N+](=O)[O-])cc1N)c1ccccc1 | 35.5 µM [rising, single point] | –
O=C(OCc1cncs1)c1ccccc1 | 14.1 µM [rising, partial curve, poor fit] | –
O=C(CSCCS(=O)(=O)c1ccc(Cl)cc1)Nc1ccccc1 | 11.2 µM [rising, single point] | –
O=C1CS/C(=N/N=C/c2cccs2)N1 | 3.55 µM [rising, full curve, poor fit] | –
COc1ccc(C(=O)CN2C(=O)c3ccccc3C2=O)cc1 | 35.5 µM [falling, single point] | –
COc1ccccc1/C=C/C=N/n1c(-c2ccco2)n[nH]c1=S | 20 µM [falling, partial curve] | –
Oc1ccc(/C=N/NC(=S)NCCN2CCOCC2)c(O)c1 | 35.5 µM [falling, single point] | –
COC(=O)c1sc(NC(=O)Cc2cccs2)nc1C | 29.1 µM [falling, single point] | –
COc1ccc(Cl)cc1NC(=O)C1COc2ccccc2O1 (stereo not drawn) | 1.12 µM [rising, full curve, poor fit] | –
COc1ccc(Cl)cc1CSc1n[nH]c(C)n1 | 23.1 µM [rising, partial curve] | –
Cc1ccc(NC(=O)C2=C(c3ccccc3)S(=O)(=O)CCS2(=O)=O)cc1 | 2.24 µM [falling, full curve] | –
Oc1ccccc1/C=N/n1cnnc1 | 20.6 µM [falling, partial curve, poor fit] | –
CCN(CC)S(=O)(=O)c1ccc(C(=O)NCc2ccc3c(c2)OCO3)cc1 | 1.12 µM [falling, full curve, poor fit] | –

SMILES | AC50 [1] | AC50 [2]
Cc1nnc(SCC(=O)N(C)C2CCCCC2)s1 | 0.316 µM [rising, full curve, poor fit] | –
CC(C)Cn1nc(NC(=O)C(C)(C)C)c2cc3ccccc3nc21 | 22.4 µM [falling, single point] | –
CN(C)c1ccc(CNc2nc3ccccc3s2)cc1 | 0.316 µM [rising, full curve, poor fit] | –
CN1CCN(C(=O)c2ccc(COc3cc(Cl)ccc3Cl)o2)CC1 | 0.447 µM [falling, full curve, poor fit] | –
CCCn1nnc(NC(=S)NC(=O)Cc2ccccc2)n1 | 4.47 µM [falling, full curve] | 1.78 µM [falling, partial curve, poor fit]
Cc1ccc2nc(NC(=O)C3CCCN(S(=O)(=O)c4cccc5nsnc45)C3)sc2c1 (stereo not drawn) | 10 µM [falling, partial curve, poor fit] | –
CCn1ccnc1CN1CCc2c([nH]c3ccccc23)C1C1CCCCC1 (stereo not drawn) | 15.8 µM [falling, single point] | –
O=C(NNC(=O)c1n[nH]c2ccccc12)c1ccccc1 | 13 µM [falling, partial curve] | –
CC(=O)Oc1ccccc1N(C(C)=O)S(=O)(=O)c1ccc2ccccc2c1 | – | 28.2 µM [falling, single point]
COc1ccc(NCC(=O)Nc2ccc(C#N)cc2)cc1Cl | 0.517 µM [rising, full curve] | –
CC(=O)Nc1ccc(NC(=O)CSc2nnc(NC(=O)c3cccc(F)c3)s2)cc1 | 12.6 µM [falling, single point] | –
Cc1ccc(NC(=O)c2ccc(F)c(S(=O)(=O)NCCc3ccccc3)c2)cc1F | 10 µM [falling, partial curve, poor fit] | –
O=C(Cn1nnc(-c2ccccc2Cl)n1)NCc1ccc2c(c1)OCO2 | 2.59 µM [falling, full curve] | –
CCOc1ccc(-n2c(SCC(=O)Nc3ccc(Br)cc3)nc3n[nH]c(C)c3c2=N)cc1 | 22.4 µM [rising, single point] | –
C=CCOc1ccc(/C(CC)=N/O)c(OC)c1 | 11.6 µM [rising, partial curve] | –
Cc1c(Cl)cccc1N(Cc1ccc(C(=O)O)cc1)S(=O)(=O)c1ccccc1 | 35.5 µM [rising, single point] | –
CCN1CCN(c2nc(Nc3ccccc3)nc(N)c2[N+](=O)[O-])CC1 | 32.6 µM [rising, partial curve, poor fit] | –
CCOc1ccc2nc(N(Cc3cccnc3)C(=O)c3ccco3)sc2c1 | 3.16 µM [rising, partial curve, poor fit] | –
CC(C)(C)C(=O)Nc1ccc(C(=O)NNC(=O)c2ccccc2)cc1 | 35.5 µM [rising, single point] | –
O=C(COc1ccccc1)NC(NC(=S)Nc1ccccc1O)C(Cl)(Cl)Cl (stereo not drawn) | 11.2 µM [falling, partial curve, poor fit] | –
Cc1cc(C(=O)NNC(=S)Nc2ccccc2)nn1C | 10 µM [falling, partial curve] | –
